Laboratory results taken from the supplement of paper PMC10849652.
Some of the results follow.

Amino acid sequences for entries named in this document (tags omitted). A change or cut given only in a name is not applied to a line headed by its entry.
UniProt Q8WZA2: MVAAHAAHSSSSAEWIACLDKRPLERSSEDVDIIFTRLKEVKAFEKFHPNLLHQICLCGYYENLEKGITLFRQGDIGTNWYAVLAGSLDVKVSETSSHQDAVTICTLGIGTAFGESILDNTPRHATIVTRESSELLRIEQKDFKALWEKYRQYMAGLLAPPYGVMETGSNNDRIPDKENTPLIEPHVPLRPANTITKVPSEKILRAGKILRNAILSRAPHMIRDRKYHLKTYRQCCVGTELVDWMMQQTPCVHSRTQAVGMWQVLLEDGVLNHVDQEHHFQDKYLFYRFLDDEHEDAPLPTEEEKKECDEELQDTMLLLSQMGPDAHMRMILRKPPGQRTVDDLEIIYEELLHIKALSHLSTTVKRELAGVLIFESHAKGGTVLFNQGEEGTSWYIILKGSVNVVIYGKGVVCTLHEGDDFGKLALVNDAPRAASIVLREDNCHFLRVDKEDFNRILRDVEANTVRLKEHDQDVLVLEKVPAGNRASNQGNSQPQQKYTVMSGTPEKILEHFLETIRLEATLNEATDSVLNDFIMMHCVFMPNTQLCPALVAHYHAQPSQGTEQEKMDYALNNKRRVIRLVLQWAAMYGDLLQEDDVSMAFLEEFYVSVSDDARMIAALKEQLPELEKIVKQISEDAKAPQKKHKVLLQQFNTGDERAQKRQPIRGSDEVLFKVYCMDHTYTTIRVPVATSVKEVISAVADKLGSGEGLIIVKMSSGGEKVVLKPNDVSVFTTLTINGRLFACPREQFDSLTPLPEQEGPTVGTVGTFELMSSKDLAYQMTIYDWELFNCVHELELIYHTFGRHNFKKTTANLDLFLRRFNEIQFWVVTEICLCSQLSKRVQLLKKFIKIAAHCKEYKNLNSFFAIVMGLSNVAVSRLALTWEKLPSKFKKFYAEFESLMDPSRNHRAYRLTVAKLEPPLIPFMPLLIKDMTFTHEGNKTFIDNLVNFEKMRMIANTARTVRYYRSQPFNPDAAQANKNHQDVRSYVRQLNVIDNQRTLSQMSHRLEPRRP
UniProt Q16576, whole entry, looked up: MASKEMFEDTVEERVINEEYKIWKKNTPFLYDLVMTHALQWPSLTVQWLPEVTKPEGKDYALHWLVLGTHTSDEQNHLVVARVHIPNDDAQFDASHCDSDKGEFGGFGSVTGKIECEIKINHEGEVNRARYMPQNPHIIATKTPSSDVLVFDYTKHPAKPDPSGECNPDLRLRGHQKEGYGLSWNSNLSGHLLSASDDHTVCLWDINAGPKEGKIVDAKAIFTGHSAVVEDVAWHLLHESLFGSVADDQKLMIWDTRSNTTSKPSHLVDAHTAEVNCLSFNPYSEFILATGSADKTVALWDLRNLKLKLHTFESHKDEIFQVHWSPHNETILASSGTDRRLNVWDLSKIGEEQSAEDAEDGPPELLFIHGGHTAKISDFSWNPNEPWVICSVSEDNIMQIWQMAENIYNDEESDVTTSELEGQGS
UniProt O75771: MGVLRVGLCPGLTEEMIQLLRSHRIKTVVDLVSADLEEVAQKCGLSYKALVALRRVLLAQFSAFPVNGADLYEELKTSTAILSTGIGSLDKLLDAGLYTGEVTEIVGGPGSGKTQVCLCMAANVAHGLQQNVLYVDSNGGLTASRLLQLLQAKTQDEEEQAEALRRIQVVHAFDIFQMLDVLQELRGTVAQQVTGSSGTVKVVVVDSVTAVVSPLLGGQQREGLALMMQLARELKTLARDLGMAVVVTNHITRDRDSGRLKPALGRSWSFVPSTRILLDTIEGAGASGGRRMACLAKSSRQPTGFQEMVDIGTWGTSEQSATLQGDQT
UniProt Q96PK6: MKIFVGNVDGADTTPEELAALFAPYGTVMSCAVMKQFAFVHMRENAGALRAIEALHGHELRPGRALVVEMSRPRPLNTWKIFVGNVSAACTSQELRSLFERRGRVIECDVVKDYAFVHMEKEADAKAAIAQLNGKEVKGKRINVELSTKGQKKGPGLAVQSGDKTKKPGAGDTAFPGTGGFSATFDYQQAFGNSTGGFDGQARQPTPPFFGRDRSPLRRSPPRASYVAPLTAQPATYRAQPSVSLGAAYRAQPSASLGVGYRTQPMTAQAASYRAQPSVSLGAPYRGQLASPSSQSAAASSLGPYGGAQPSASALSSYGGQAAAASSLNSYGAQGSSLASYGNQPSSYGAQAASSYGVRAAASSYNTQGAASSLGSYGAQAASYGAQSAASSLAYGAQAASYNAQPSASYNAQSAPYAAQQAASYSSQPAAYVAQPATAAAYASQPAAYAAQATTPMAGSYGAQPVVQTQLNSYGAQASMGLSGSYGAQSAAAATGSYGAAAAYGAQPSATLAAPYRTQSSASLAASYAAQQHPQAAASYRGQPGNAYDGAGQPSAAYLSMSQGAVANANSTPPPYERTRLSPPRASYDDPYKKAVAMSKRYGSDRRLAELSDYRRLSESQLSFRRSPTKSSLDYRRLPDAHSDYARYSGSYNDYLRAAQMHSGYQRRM
UniProt Q8TEU7: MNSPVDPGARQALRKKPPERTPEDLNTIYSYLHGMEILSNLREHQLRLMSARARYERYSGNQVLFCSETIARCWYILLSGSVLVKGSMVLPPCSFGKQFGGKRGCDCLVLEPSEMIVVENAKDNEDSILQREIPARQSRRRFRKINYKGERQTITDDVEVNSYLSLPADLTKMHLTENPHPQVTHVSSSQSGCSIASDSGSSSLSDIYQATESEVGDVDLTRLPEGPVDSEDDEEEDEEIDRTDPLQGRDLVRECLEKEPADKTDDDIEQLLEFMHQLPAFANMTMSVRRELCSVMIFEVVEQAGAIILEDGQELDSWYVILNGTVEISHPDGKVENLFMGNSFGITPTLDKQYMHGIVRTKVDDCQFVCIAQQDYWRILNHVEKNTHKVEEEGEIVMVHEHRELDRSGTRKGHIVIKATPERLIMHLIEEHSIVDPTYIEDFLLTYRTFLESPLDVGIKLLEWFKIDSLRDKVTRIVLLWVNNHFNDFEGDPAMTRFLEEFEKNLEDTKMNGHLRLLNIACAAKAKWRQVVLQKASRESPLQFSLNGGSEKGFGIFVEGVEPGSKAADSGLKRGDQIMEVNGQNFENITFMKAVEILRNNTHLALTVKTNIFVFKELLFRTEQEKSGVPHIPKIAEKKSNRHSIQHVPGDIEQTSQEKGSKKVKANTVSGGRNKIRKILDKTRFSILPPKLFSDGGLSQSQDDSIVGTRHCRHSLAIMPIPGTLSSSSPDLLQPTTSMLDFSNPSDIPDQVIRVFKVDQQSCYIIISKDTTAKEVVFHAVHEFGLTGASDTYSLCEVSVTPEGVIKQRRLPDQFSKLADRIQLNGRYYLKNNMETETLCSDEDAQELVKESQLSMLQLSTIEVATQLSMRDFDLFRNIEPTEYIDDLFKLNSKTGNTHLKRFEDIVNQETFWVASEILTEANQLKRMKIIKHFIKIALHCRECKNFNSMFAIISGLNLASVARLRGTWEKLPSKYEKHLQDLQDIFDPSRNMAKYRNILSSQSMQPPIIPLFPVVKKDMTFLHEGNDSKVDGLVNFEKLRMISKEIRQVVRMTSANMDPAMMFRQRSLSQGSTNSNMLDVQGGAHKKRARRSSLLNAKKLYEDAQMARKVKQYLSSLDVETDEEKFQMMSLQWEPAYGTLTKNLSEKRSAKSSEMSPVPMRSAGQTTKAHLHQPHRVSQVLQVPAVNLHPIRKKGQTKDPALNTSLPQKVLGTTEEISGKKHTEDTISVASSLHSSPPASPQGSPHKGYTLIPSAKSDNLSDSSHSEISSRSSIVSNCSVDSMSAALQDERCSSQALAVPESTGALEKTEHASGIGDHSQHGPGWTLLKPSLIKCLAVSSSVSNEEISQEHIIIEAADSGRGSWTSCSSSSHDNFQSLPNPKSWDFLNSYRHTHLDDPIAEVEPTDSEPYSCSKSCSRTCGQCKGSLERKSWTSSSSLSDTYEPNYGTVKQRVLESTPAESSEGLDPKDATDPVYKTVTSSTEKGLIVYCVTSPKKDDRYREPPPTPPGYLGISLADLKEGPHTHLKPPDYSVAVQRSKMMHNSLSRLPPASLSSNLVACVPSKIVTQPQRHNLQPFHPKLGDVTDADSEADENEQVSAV
UniProt O95716: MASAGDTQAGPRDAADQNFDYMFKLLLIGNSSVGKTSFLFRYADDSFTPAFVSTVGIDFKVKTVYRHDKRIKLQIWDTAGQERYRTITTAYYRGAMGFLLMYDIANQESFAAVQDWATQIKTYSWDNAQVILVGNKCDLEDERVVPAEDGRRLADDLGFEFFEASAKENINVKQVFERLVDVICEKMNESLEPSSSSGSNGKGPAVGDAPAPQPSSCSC
UniProt O75943: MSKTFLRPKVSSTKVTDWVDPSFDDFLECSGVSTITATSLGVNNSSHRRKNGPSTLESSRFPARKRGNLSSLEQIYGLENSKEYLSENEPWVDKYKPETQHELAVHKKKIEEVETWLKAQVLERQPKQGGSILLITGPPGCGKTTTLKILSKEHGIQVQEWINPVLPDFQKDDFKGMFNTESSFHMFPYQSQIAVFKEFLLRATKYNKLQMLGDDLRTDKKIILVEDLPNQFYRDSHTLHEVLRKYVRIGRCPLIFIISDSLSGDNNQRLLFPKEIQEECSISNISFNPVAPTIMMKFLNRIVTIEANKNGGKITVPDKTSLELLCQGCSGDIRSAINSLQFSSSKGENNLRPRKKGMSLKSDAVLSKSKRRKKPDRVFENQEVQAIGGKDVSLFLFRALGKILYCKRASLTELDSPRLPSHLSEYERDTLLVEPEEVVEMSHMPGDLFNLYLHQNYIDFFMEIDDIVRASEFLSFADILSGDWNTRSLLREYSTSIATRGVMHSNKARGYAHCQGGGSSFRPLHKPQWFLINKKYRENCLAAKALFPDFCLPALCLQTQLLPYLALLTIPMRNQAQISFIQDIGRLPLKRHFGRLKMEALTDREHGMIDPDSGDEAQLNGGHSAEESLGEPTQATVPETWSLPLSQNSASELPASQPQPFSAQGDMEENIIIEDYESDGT
UniProt Q9BYM8: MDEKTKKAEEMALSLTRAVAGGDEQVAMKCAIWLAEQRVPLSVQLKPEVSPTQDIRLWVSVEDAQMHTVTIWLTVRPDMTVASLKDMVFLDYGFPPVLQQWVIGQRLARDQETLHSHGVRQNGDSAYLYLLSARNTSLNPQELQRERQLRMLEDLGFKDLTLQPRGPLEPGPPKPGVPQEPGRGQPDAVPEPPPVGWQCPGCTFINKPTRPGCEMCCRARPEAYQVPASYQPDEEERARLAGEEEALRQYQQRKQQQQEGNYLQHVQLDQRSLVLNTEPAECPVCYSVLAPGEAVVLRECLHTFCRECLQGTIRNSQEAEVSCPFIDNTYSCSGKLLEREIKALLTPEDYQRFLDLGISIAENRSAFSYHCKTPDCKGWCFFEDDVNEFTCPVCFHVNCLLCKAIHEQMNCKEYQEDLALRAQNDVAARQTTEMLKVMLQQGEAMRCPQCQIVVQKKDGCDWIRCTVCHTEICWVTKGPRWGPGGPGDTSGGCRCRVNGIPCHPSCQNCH
UniProt Q9H5N1: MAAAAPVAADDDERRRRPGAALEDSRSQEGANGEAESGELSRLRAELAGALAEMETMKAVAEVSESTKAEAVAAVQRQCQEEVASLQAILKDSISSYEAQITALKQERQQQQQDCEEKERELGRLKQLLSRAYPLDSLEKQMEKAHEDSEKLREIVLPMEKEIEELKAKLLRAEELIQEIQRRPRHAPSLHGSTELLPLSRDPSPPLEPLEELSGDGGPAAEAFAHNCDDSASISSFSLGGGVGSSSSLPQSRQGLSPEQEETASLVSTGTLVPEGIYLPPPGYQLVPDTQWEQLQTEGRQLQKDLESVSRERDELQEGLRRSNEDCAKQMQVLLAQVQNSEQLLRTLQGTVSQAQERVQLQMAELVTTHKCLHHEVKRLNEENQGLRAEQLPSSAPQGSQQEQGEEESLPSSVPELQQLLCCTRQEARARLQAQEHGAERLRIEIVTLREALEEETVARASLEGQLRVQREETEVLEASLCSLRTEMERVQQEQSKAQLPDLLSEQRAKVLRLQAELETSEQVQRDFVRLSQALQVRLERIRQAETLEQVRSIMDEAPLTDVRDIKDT
UniProt Q15771: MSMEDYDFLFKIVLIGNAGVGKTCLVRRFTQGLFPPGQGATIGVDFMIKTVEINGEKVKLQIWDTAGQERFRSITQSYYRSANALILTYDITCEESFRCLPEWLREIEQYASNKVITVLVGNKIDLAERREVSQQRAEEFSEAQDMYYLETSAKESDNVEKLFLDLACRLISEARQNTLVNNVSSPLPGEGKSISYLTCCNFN
UniProt Q9H477: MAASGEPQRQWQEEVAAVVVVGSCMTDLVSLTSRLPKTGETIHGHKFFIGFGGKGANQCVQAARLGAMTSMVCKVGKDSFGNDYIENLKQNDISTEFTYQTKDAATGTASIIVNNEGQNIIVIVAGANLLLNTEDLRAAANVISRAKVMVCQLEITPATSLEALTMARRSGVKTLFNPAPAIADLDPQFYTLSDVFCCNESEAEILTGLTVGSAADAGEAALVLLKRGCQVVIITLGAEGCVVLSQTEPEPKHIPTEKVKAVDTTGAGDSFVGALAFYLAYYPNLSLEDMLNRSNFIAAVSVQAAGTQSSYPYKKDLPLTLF

Legend:
Assay in all cases: log2 fold change, soluble protein after heating vs DMSO (PISA); higher = thermal stabilisation; K562 cells, 10 uM, 30 min; active = over 0.2 and 3.5 SD of the protein, either way, in both replicates (recomputed)
saracatinib = compound: CN1CCN(CCOc2cc(OC3CCOCC3)c3c(Nc4c(Cl)ccc5c4OCO5)ncnc3c2)CC1 [saracatinib]
Method in brief: (§1)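 Thermal stability values are relative to control samples and come from duplicates. They are expressed as log2 fold changes. For measurement, K562 cells (2×10^6 cells/mL) received 10 μM compound for 30 min, and aliquots were heated for 3 min over 48°C-58°C, pooled, and extracted at 4°C in PBS with 0.5% NP-40. Soluble protein, the supernatant after 21,000xg for 90 min, was quantified by TMTpro 16plex LC-MS/MS with equalised channel sums.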

sotrastaurin = compound: CN1CCN(c2nc(C3=C(c4c[nH]c5ccccc45)C(=O)NC3=O)c3ccccc3n2)CC1 [sotrastaurin]
Method in brief: as §1

Tubastatin A = compound: CN1CCc2c(c3ccccc3n2Cc2ccc(C(=O)NO)cc2)C1 [Tubastatin A]
Method in brief: as §1

[1] = compound: CNC(=O)C1=CC=CC=C1NC2=NC(=NC=C2Cl)NC3=C(C=C(C=C3)N4CCOCC4)OC
Method in brief: as §1

defactinib = compound: CNC(=O)c1ccc(Nc2ncc(C(F)(F)F)c(NCc3nccnc3N(C)S(C)(=O)=O)n2)cc1 [defactinib]
Method in brief: as §1

rucaparib = compound: CNCc1ccc(-c2[nH]c3cc(F)cc4c3c2CCNC4=O)cc1 [rucaparib]
Method in brief: as §1

[2] = compound: CNc1nc(-c2ccc3c(N)n[nH]c3c2)cc(N2C[C@@H](C(=O)NC3CCCCC3)CC[C@H]2C)n1
Method in brief: as §1

encorafenib = compound: COC(=O)N[C@@H](C)CNc1nccc(-c2cn(C(C)C)nc2-c2cc(Cl)cc(NS(C)(=O)=O)c2F)n1 [encorafenib]
Method in brief: as §1

[3] = compound: COC(=O)[C@H](CCSC)NC(=O)C1=C(C=C(C=C1)NC[C@H](CS)N)C2=CC=CC=C2
Method in brief: as §1

alvocidib = compound: CN1CC[C@H](c2c(O)cc(O)c3c(=O)cc(-c4ccccc4Cl)oc23)[C@H](O)C1 [alvocidib]
Method in brief: as §1

Measured: log2 fold change

RAP2C (UniProt Q9Y3L5)
inactive: saracatinib 0.04 | sotrastaurin 0.026 | Tubastatin A -0.014 | [1] -0.058 | defactinib -0.044 | rucaparib -0.003 | [2] -0.054 | encorafenib -0.041 | [3] 0.01

RAB40C (UniProt Q96S21)
inactive: saracatinib 0.228 | sotrastaurin 0.102 | Tubastatin A 0.12 | [1] 0.125 | defactinib -0.084 | rucaparib -0.036 | [2] 0.129 | encorafenib 0.025 | [3] 0.056

RAB5IF isoform 5 (UniProt Q9BUV8)
inactive: saracatinib 0.114 | sotrastaurin -0.018 | Tubastatin A -0.139 | [1] -0.08 | defactinib -0.01 | rucaparib -0.014 | [2] -0.018 | encorafenib 0.08 | [3] 0.031

RAD18 (UniProt Q9NS91)
inactive: saracatinib 0.002 | sotrastaurin -0.224 | alvocidib -0.252 | Tubastatin A 0.013 | [1] 0.174 | defactinib -0.153 | [2] -0.047 | [3] -0.021

RAPGEF4 (UniProt Q8WZA2)
inactive: saracatinib 0.045 | sotrastaurin -0.033 | Tubastatin A 0.333 | [1] -0.114 | defactinib -0.057 | rucaparib -0.063 | [2] 0.083 | encorafenib 0.059 | [3] -0.123

RAC2 (UniProt P15153)
inactive: saracatinib -0.001 | sotrastaurin 0.031 | alvocidib 0.05 | Tubastatin A -0.007 | [1] 0.017 | defactinib 0.033 | rucaparib -0.036 | [2] -0.026 | encorafenib -0.009 | [3] 0.017

RBM23 (UniProt Q86U06)
inactive: saracatinib -0.088 | sotrastaurin 0.002 | alvocidib -0.208 | [1] 0.022 | defactinib -0.117 | [2] -0.353 | [3] 0.048

RAN (UniProt P62826)
inactive: saracatinib 0.024 | sotrastaurin 0.05 | alvocidib 0.026 | Tubastatin A -0.053 | [1] -0.021 | defactinib 0.012 | rucaparib -0.042 | [2] -0.059 | encorafenib -0.038 | [3] 0.032

RAP1GAP isoform 4 (UniProt P47736)
inactive: saracatinib 0.025 | sotrastaurin -0.171 | alvocidib -0.178 | Tubastatin A 0.017 | [1] 0.022 | defactinib -0.129 | [2] 0.086 | [3] -0.089

RAPGEF2, A0A2R8YGD3
inactive: saracatinib -0.049 | sotrastaurin -0.041 | alvocidib 0.152 | Tubastatin A 0.065 | [1] -0.003 | defactinib 0.041 | [2] -0.16 | [3] 0.015

RBM12 (UniProt Q9NTZ6)
inactive: saracatinib -0.04 | sotrastaurin -0.12 | Tubastatin A 0.074 | [1] 0.008 | defactinib -0.27 | rucaparib -0.109 | [2] -0.02 | encorafenib 0.061 | [3] -0.052

RBBP7 isoform 2 (UniProt Q16576)
inactive: saracatinib 0 | sotrastaurin 0.001 | alvocidib -0.008 | Tubastatin A -0.028 | [1] 0.015 | defactinib -0.038 | rucaparib -0.082 | [2] -0.04 | encorafenib 0.014 | [3] -0.002

RAB1B (UniProt Q9H0U4)
inactive: saracatinib 0.043 | sotrastaurin 0.018 | alvocidib 0.05 | Tubastatin A -0.031 | [1] -0.006 | defactinib 0.002 | rucaparib -0.143 | [2] -0.064 | encorafenib 0.008 | [3] 0.012

RAD21 (UniProt O60216)
inactive: saracatinib 0.023 | sotrastaurin -0.048 | alvocidib -0.043 | Tubastatin A -0.004 | [1] -0.04 | defactinib -0.092 | rucaparib -0.056 | [2] 0.002 | encorafenib 0.002 | [3] 0.005

RAB3C (UniProt Q96E17)
inactive: saracatinib 0.101 | sotrastaurin 0.042 | alvocidib 0.006 | Tubastatin A -0.11 | [1] 0.014 | defactinib 0.01 | rucaparib 0.076 | [2] -0.033 | encorafenib -0.026 | [3] 0.052

RAD51D (UniProt O75771)
inactive: alvocidib -0.036

RBM14 (UniProt Q96PK6)
inactive: alvocidib -0.038

RALGPS2 (UniProt Q86X27)
inactive: saracatinib -0.042 | Tubastatin A 0.18 | [1] -0.098 | defactinib 0.176 | rucaparib -0.133 | [2] 0.159 | encorafenib 0.425 | [3] -0.101

RAPGEF6 isoform 4 (UniProt Q8TEU7)
inactive: sotrastaurin -0.06 | alvocidib -0.129 | Tubastatin A -0.248 | [1] 0.028 | defactinib -0.244 | rucaparib -0.122 | encorafenib 0.047 | [3] -0.007

RAP1B (UniProt F5GWU8)
inactive: saracatinib 0.104 | alvocidib -0.546 | defactinib -0.014 | [2] 0.174 | [3] 0.012

2 records drawn at random from the list so far:
RBM23 (UniProt Q86U06)
inactive: saracatinib -0.088 | sotrastaurin 0.002 | alvocidib -0.208 | [1] 0.022 | defactinib -0.117 | [2] -0.353 | [3] 0.048

RBM14 (UniProt Q96PK6)
inactive: alvocidib -0.038

Next part

RAB3IL1 (UniProt E9PK89)
inactive: sotrastaurin -0.082 | Tubastatin A -0.095 | [1] -0.011 | defactinib -0.016 | rucaparib -0.074 | encorafenib 0.084 | [3] 0.045

RAB3B (UniProt P20337)
inactive: sotrastaurin -0.053 | Tubastatin A 0.071 | [1] -0.35

RANBP10 (UniProt Q6VN20)
inactive: sotrastaurin -0.262 | alvocidib -0.033 | Tubastatin A 0.046 | [1] 0.087 | defactinib -0.073 | rucaparib -0.022 | encorafenib 0.004 | [3] -0.073

RBL1 (UniProt P28749)
inactive: [1] -0.203 | rucaparib 0.024 | encorafenib -0.057

RAB3D (UniProt O95716)
inactive: saracatinib 0.295 | Tubastatin A 0.024 | [1] 0.022 | defactinib 0.064 | rucaparib -0.021 | [2] -0.016 | encorafenib -0.043 | [3] -0.094

RAD17 (UniProt O75943)
inactive: saracatinib -0.095 | Tubastatin A 0.156 | [2] -0.079

RALBP1 (UniProt Q15311)
inactive: sotrastaurin -0.243 | alvocidib -0.15 | Tubastatin A -0.434 | defactinib 0.22 | [3] -0.001

RBBP9 (UniProt O75884)
inactive: sotrastaurin 0.066 | defactinib 0.225 | [3] 0.078

RBCK1 (UniProt Q9BYM8)
inactive: saracatinib -0.094 | alvocidib 0.106 | Tubastatin A -0.102 | [1] -0.026 | defactinib -0.111 | [2] 0.018 | [3] -0.203

RABEP2 (UniProt Q9H5N1)
inactive: alvocidib -0.046 | [1] 0.16

RASSF1 (UniProt Q9NS23)
inactive: sotrastaurin -0.27 | defactinib 0.075 | [3] 0.047

RBBP6 (UniProt Q7Z6E9)
inactive: sotrastaurin 0.11 | Tubastatin A 0.074 | [1] -0.006 | defactinib -0.056 | rucaparib 0.067 | encorafenib 0.055 | [3] 0.04

RAB30 (UniProt Q15771)
inactive: saracatinib 0.023 | alvocidib -0.249 | [1] 0.022 | defactinib 0.02 | rucaparib -0.009 | [2] 0.009 | encorafenib 0.014 | [3] -0.041

RBKS (UniProt Q9H477)
inactive: defactinib -0.012 | rucaparib -0.286 | encorafenib 0.173 | [3] 0.061

RAB18 (UniProt H0Y6T8)
inactive: alvocidib 0.083 | Tubastatin A -0.006 | defactinib 0.139 | rucaparib -0.311 | encorafenib 0.027 | [3] -0.055

RBBP4 isoform 2 (UniProt Q09028)
inactive: saracatinib 0.182 | alvocidib 0.063 | [1] -0.031 | rucaparib -0.049 | [2] -0.036 | encorafenib -0.012
